# Test results as given in patent publication US20020065306A1, “Methods for prevention of ulcers and improving physiological performance” (priority 2000, published 2002).
# At least one structure is not confirmed: it was looked up by name or label, or the drawing left a doubt.
# Experiments:
# [1] = tested on: gastric ulcers in horses; assay: Prevention of gastric ulcers in horses under the ulcer-inducing training protocol (endoscopic ulcer scoring); assay type: in vivo; conditions: 56 days trial
# [2] = tested on: horses; assay: Testing physiological responses of horses on treadmill (oxygen consumption, time to exhaustion, stride length); assay type: in vivo; conditions: 4 mg/kg omeprazole paste
# [3] = end of the trial, versus non-treated group
smiles,measurement,setting,value
"COc1ccc2[nH]c([S+]([O-])Cc3ncc(C)c(OC)c3C)nc2c1 (stereo not drawn) [omeprazole, 5-metoxy-2-[[(4-metoxy-3,5-dimethyl-2-pyridinyl)methyl]sulphinyl]-1H-benzimidazole]",number of horses that developed mild ulcers,"[1]; treated group of 14 horses, paste of example 1 at 4 mg/kg omeprazole, all non-treated horses developed moderate to severe ulcers",two
same,persistence of the ulcers during the trial,"[1]; treated group, 4 mg/kg omeprazole",ten
same,physiological responses compared to the non-treated group,[2]; end of the trial (56 days),significantly better
same,Oxygen consumption,[2]; [3],substantially increased
same,stride length,[2]; [3],substantially increased
same,time to exhaustion,[2]; [3],substantially increased
